HELM strings list residues between dots; [ac] is acetyl, [am] amide, other brackets name non-standard units. Numbered stars: 1 amine (or outer) side, 2 acyl side, 3 side chain; on linkers, the order of the positions; unused ones are H or OH. Square brackets hold non-standard residues; d marks the D form. * marks the point of attachment. ξ: configuration not given here. X1 = COc1cccc2c1C(=O)c1c(O)c3c(c(O)c1C2=O)C[C@@](O)(C(=O)CO)CC3O[C@H]1C[C@@H](N*)C(O)[C@H](C)O1; Hexanoyl(6-maleimido) = O=C1C=CC(=O)N1CCCCCC(=O)*; PABC = O=C(OCc1ccc(N[*:1])cc1)[*:2]; ξY = NC(Cc1ccc(O)cc1)C(=O)O; ξR = N=C(N)NCCCC(N)C(=O)O; ξL = CC(C)CC(N)C(=O)O; ξS = NC(CO)C(=O)O

This data set can be described thus: general procedure: peptide synthesis; DIPC/HOBt, 4-methylmorpholine. The conditions noted are these: coupling step.

“PEPTIDE1{[EMC].[xArg].[xSer].[xSer].[xTyr].[xTyr].[xSer].[xLeu].[PABC-Paclitaxel]}$$$$V2.0”: the step yield is recorded as 45%. Moreover, where the note is “230 nm”, the “final HPLC purity” value is given as above 95%.

“{Hexanoyl(6-maleimido)}-[ξR][ξS][ξS][ξY][ξY][ξS][ξL][PABC]-X1 (SMILES COc1cccc2c1C(=O)c1c(O)c3c(c(O)c1C2=O)C[C@@](O)(C(=O)CO)CC3O[C@H]1C[C@@H](NC(=O)OCc2ccc(NC(=O)C(CC(C)C)NC(=O)C(CO)NC(=O)C(Cc3ccc(O)cc3)NC(=O)C(Cc3ccc(O)cc3)NC(=O)C(CO)NC(=O)C(CO)NC(=O)C(CCCNC(=N)N)NC(=O)CCCCCN3C(=O)C=CC3=O)cc2)C(O)[C@H](C)O1)” registered a step yield of 73%. Moreover, the “final HPLC purity” value (495 nm) is above 95%.

For the origin of these results see patent publication US8642555B2 (KTB Tumorforschungsgesellschaft mbH, priority 2009, dated 2014).
